Assay [1] has as its target T1, mouse GPR110-HA (C-terminal HA-tagged GPR110, ADGRF1) (mouse) (UniProt Q8VEC3).
T1 sequence: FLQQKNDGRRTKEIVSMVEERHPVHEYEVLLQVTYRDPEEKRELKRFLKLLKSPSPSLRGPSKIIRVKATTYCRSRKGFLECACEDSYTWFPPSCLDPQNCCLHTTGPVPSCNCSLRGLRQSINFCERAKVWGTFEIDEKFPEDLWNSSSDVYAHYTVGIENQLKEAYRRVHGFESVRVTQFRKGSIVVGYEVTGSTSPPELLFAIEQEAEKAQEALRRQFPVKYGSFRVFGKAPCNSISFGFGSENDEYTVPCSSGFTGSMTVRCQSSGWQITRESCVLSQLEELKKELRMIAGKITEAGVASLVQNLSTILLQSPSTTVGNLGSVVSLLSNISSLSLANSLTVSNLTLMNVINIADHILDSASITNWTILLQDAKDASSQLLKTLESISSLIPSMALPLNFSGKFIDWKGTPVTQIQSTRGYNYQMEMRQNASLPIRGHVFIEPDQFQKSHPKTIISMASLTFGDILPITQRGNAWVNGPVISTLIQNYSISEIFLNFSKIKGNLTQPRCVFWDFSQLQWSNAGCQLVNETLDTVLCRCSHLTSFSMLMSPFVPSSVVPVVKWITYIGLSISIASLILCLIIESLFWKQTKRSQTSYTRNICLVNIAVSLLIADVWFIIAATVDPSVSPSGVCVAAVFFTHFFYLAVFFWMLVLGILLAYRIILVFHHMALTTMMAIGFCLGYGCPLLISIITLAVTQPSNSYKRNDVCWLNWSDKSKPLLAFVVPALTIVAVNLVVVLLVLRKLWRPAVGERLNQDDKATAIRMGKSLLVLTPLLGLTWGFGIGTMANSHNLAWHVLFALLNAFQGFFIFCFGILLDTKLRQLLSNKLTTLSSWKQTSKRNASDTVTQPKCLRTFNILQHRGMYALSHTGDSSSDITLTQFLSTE
The experiment in a line: co-IP; HEK cells expressing mGPR110-HA lysed; lysate pre-cleared with protein A/G-agarose; IP with anti-HA antibody (1 mg total protein); blot with antibodies against Gαs/i/q; mouse IgG IP as control.

Amino acid sequences for entries named in this document (tags omitted).
UniProt P63092: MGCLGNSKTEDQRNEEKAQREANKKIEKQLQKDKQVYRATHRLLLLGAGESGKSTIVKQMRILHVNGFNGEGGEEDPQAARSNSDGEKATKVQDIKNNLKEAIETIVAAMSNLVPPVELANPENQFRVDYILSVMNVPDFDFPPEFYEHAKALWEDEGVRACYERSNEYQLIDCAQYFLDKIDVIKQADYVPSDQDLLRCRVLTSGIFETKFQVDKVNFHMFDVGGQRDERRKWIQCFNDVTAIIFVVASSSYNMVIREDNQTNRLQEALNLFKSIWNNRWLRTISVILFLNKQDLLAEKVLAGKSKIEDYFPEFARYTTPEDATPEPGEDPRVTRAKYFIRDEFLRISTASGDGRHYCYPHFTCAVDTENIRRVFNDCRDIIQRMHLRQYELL
UniProt P50148: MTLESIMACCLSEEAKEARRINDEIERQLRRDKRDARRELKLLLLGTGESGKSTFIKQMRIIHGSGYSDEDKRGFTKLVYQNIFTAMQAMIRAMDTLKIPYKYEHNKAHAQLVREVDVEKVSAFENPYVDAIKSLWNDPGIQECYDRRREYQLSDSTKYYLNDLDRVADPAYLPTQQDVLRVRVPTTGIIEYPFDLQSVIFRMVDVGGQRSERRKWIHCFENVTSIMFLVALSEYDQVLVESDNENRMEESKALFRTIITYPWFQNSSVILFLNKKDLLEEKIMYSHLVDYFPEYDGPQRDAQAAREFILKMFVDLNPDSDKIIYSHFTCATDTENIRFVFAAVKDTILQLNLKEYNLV

In assay [2] the target is T2, GPR110-HA (species not named for this experiment) (not stated (human or mouse cDNA cloned)) (UniProt Q8VEC3).
T2 sequence: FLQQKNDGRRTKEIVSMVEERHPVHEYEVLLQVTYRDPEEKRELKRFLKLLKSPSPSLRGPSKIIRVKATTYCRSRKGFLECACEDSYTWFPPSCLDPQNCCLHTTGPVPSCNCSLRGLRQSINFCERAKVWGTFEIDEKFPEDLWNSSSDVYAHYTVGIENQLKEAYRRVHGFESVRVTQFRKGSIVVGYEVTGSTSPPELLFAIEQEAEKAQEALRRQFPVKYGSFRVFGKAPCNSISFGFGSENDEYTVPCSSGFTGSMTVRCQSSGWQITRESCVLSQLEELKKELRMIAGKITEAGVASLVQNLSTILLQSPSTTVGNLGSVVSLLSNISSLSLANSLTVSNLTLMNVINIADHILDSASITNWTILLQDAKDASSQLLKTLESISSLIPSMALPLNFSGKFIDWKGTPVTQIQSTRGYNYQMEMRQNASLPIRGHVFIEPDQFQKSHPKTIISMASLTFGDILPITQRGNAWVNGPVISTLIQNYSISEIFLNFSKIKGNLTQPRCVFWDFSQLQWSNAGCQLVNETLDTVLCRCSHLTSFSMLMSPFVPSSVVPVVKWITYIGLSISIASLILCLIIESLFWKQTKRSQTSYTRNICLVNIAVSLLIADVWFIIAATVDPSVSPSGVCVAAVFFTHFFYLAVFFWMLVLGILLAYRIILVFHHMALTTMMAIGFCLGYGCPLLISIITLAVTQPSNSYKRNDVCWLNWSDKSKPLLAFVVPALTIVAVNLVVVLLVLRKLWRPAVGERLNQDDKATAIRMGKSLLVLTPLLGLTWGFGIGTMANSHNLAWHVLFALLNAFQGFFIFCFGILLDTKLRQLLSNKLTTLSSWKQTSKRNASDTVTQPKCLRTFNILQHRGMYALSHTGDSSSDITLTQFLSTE
Briefly: co-IP; HEK293 cells co-transfected with HA-tagged GPR110 and GFP-tagged Gαs; IP with anti-HA; blot with anti-GFP.

In assay [3] the target is endogenous Gαs (human (endogenous in HEK293)) (UniProt P63092). Briefly: co-IP; reversed IP: endogenous Gαs immunoprecipitated with anti-Gαs from lysate of HEK293 cells expressing GPR110-HA (1 mg total protein); blot with anti-HA.

Results are given in words; binding and its absence hold for the method and conditions named. In cells and extracts the contact can be indirect. Some binding calls cover weakened binding; strength is not graded here. Sequences can lack the tags named with a protein.

Regarding Gαq (from UniProt P50148 1-359), the binding entry in assay [1] is reported as “no binding”.

Take “endogenous Gαs (from UniProt P63092 1-394)”: in assay [1], the binding entry is “binds”.

Take “GFP-tagged Gαs (from UniProt P63092 1-394)”: the binding result in assay [2] is “binds”.

B1: GPR110-HA (species not named for this experiment) (receptor, UniProt Q8VEC3 21-908)
chain: FLQQKNDGRRTKEIVSMVEERHPVHEYEVLLQVTYRDPEEKRELKRFLKLLKSPSPSLRGPSKIIRVKATTYCRSRKGFLECACEDSYTWFPPSCLDPQNCCLHTTGPVPSCNCSLRGLRQSINFCERAKVWGTFEIDEKFPEDLWNSSSDVYAHYTVGIENQLKEAYRRVHGFESVRVTQFRKGSIVVGYEVTGSTSPPELLFAIEQEAEKAQEALRRQFPVKYGSFRVFGKAPCNSISFGFGSENDEYTVPCSSGFTGSMTVRCQSSGWQITRESCVLSQLEELKKELRMIAGKITEAGVASLVQNLSTILLQSPSTTVGNLGSVVSLLSNISSLSLANSLTVSNLTLMNVINIADHILDSASITNWTILLQDAKDASSQLLKTLESISSLIPSMALPLNFSGKFIDWKGTPVTQIQSTRGYNYQMEMRQNASLPIRGHVFIEPDQFQKSHPKTIISMASLTFGDILPITQRGNAWVNGPVISTLIQNYSISEIFLNFSKIKGNLTQPRCVFWDFSQLQWSNAGCQLVNETLDTVLCRCSHLTSFSMLMSPFVPSSVVPVVKWITYIGLSISIASLILCLIIESLFWKQTKRSQTSYTRNICLVNIAVSLLIADVWFIIAATVDPSVSPSGVCVAAVFFTHFFYLAVFFWMLVLGILLAYRIILVFHHMALTTMMAIGFCLGYGCPLLISIITLAVTQPSNSYKRNDVCWLNWSDKSKPLLAFVVPALTIVAVNLVVVLLVLRKLWRPAVGERLNQDDKATAIRMGKSLLVLTPLLGLTWGFGIGTMANSHNLAWHVLFALLNAFQGFFIFCFGILLDTKLRQLLSNKLTTLSSWKQTSKRNASDTVTQPKCLRTFNILQHRGMYALSHTGDSSSDITLTQFLSTE
With B1, the binding entry in assay [3] is reported as “binds”.

Values taken from article PMC5075789, “Orphan GPR110 (ADGRF1) targeted by N-docosahexaenoylethanolamine in development of neurons and cognitive function” (Nature Communications, 2016).
